Values from PubChem BioAssay AID504791 (Drosophila RNAi Screening Center, 2011).

Purpose: 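Factors in Argonaute-based small RNA production and activity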 (primary screen)
System: Drosophila S2-derived reporter cells
Reagents: long dsRNA against Drosophila genes, about 150-250 ng dsRNA per well (siRNA assay); about 80-120 ng (miRNA assay)
Duration: about 5 days (siRNA assay); about 4 days (miRNA assay)
Treatment: copper sulfate induction of reporters: 25 µM (siRNA assay); 200 mM stated (miRNA assay), 1-2 days before reading
Measured: 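Per-well ratio of Renilla over firefly light, expressed relative to that plate's average ratio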
Scale: siRNA reporter hit score: higher = 3 marks a strong hit with raised ratio; -3 a strong hit with lowered ratio
Rule for the call: 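First-pass picks had plate-scaled ratios over 1.5 for the siRNA assay, over 1.6 for the miRNA assay, or under 0.6; two distinct dsRNAs had to score alike on retest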
The deposit covers about 23,000 reagents; below is a random part of those with a known target gene and a result. In the full data, 199 (0.86%) were called active. 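Plate-scaled ratios behind the calls are not deposited; printed light signals are raw; many rows marked increased or decreased are still called inactive.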 The numbers tell different reagents against one gene apart.

predicted target | reagent no. | siRNA reporter hit score | stable siRNA reporter change | miRNA reporter change | stable assay Renilla, run 1 (luminescence) | stable assay firefly, run 1 (luminescence) | Outcome
Or67a (Odorant receptor 67a) | 1 | – | – | – | 5059 | 2.87e5 | inactive
Vha68-1 (Vacuolar H[+] ATPase 68kD subunit 1) | 1 | – | – | – | 6963 | 4.38e5 | inactive
CG6508 | 1 | – | – | – | 7846 | 3.32e5 | inactive
PIP4K (Phosphatidylinositol 5-phosphate 4-kinase) | 1 | – | – | – | 6403 | 3.61e5 | inactive
CG3149 | 1 | – | – | – | 7350 | 3.65e5 | inactive
CG14362 | 1 | – | – | – | 6447 | 3.42e5 | inactive
CG31198 | 1 | – | – | – | 9112 | 4.51e5 | inactive
ppan (peter pan) | 1 | – | – | – | 7420 | 4.51e5 | inactive
CG15548 | 1 | – | – | – | 6754 | 3.30e5 | inactive
mRpS30 (mitochondrial ribosomal protein S30) | 1 | – | – | – | 6927 | 4.40e5 | inactive
CG6429 | 1 | – | – | – | 7242 | 4.47e5 | inactive
CG13361 | 1 | – | – | – | 6091 | 2.92e5 | inactive
CG2121 | 1 | – | – | – | 8742 | 4.10e5 | inactive
CG2121 | 2 | – | – | – | 6311 | 3.54e5 | inactive
Mlc-c (Myosin light chain cytoplasmic) | 1 | – | – | – | 7923 | 5.59e5 | inactive
orb (oo18 RNA-binding protein) | 1 | 3 | reporter ratio raised past the hit cutoff | reporter ratio lowered past the hit cutoff | 9077 | 2.36e5 | inactive
orb (oo18 RNA-binding protein) | 2 | – | – | – | 3616 | 3.42e5 | inactive
CG4382 | 1 | – | – | – | 7450 | 3.16e5 | inactive
eIF3c (eukaryotic translation initiation factor 3 subunit c) | 1 | – | – | – | 4587 | 3.35e5 | inactive
Ir41a (Ionotropic receptor 41a) | 1 | – | – | – | 5582 | 4.06e5 | inactive
Ir41a (Ionotropic receptor 41a) | 2 | – | – | – | 6875 | 3.66e5 | inactive
Corp (Companion of reaper) | 1 | – | – | – | 7931 | 4.51e5 | inactive
CG41520 | 1 | – | – | – | 4792 | 3.49e5 | inactive
CG41520 | 2 | – | – | – | 5575 | 3.93e5 | inactive
CG32814 | 1 | – | – | – | 6858 | 3.63e5 | inactive
CG8492 | 1 | – | – | – | 4804 | 4.45e5 | inactive
CG8492 | 2 | – | – | – | 8895 | 4.47e5 | inactive
Nup188 (Nucleoporin 188kDa) | 1 | – | – | – | 8162 | 5.27e5 | inactive
Lcp65Ad | 1 | – | – | – | 7140 | 6.26e5 | inactive
Sse (Separase) | 1 | – | – | – | 8668 | 5.69e5 | inactive
nahoda | 1 | – | – | – | 4071 | 2.73e5 | inactive
nahoda | 2 | – | – | – | 9029 | 1.60e6 | inactive
xmas-1 (retired record) | 1 | – | – | – | 5956 | 5.37e5 | inactive
Vps39 (Vacuolar protein sorting 39) | 1 | – | – | – | 8625 | 4.07e5 | inactive
blanks | 1 | – | reporter ratio raised past the hit cutoff | – | 13301 | 4.40e5 | active
CG14540 | 1 | – | – | – | 6799 | 3.04e5 | inactive
CG32264 | 1 | 3 | – | – | 3891 | 2.76e5 | inactive
CG32264 | 2 | – | – | – | 5691 | 2.95e5 | inactive
CG32264 | 3 | – | – | – | 7499 | 3.74e5 | inactive
CG32264 | 4 | – | – | – | 4231 | 3.87e5 | inactive
CG32264 | 5 | – | – | – | 4926 | 2.02e5 | inactive
CG9030 | 1 | – | – | – | 5079 | 3.70e5 | inactive
Gr22a (Gustatory receptor 22a) | 1 | – | – | – | 8574 | 5.23e5 | inactive
CG13148 | 1 | – | – | – | 4415 | 2.42e5 | inactive
CG17801 | 1 | – | – | – | 6952 | 3.34e5 | inactive
CG16782 | 1 | – | – | – | 6516 | 4.32e5 | inactive
CG11398 | 1 | – | – | – | 6022 | 4.29e5 | inactive
DAAM (Dishevelled Associated Activator of Morphogenesis) | 1 | – | – | – | 3456 | 3.26e5 | inactive
Rh4 (Rhodopsin 4) | 1 | – | – | – | 3927 | 3.69e5 | inactive
CG34417 | 1 | – | – | – | 4819 | 3.02e5 | inactive
CG34417 | 2 | – | – | – | 5080 | 2.77e5 | inactive
CG34417 | 3 | – | – | – | 8195 | 3.76e5 | inactive
CG15283 | 1 | – | – | – | 7271 | 3.55e5 | inactive
CG14086 | 1 | – | – | – | 6858 | 3.96e5 | inactive
AOX3 (Aldehyde oxidase 3) | 1 | – | – | – | 8703 | 6.46e5 | inactive
CG15111 | 1 | – | – | – | 10172 | 6.24e5 | inactive
CG34202 | 1 | – | – | – | 6698 | 6.12e5 | inactive
CG12035 | 1 | – | – | – | 10171 | 3.53e5 | inactive
Sgf11 (SAGA associated factor 11kDa) | 1 | – | – | – | 7270 | 3.74e5 | inactive
mRpL54 (mitochondrial ribosomal protein L54) | 1 | – | – | – | 2.53e5 | 3.95e5 | inactive
CG1409 | 1 | – | – | – | 6203 | 3.75e5 | inactive
CG31183 | 1 | – | – | – | 7575 | 3.79e5 | inactive
CG31183 | 2 | – | – | – | 10630 | 5.29e5 | inactive
CG14244 | 1 | – | – | – | 7138 | 5.19e5 | inactive
CG13230 | 1 | – | – | reporter ratio raised past the hit cutoff | 6932 | 4.44e5 | inactive
CG13230 | 2 | – | – | reporter ratio raised past the hit cutoff | – | – | inactive
CG10874 | 1 | – | – | – | 7854 | 6.23e5 | inactive
CG7208 | 1 | – | – | – | 6987 | 3.91e5 | inactive
CR31824 (pseudo) | 1 | – | – | – | 5139 | 3.73e5 | inactive
CG34337 | 1 | – | – | – | 4910 | 2.66e5 | inactive
Dr (Drop) | 1 | – | – | – | 4231 | 3.66e5 | inactive
Dr (Drop) | 2 | – | – | – | 4491 | 4.66e5 | inactive
CG31125 | 1 | – | – | – | 8327 | 5.99e5 | inactive
CG43775 | 1 | – | – | – | 5327 | 2.82e5 | inactive
CG11598 | 1 | – | – | – | 6268 | 5.17e5 | inactive
CG15531 | 1 | – | – | – | 6058 | 4.16e5 | inactive
Bem46 | 1 | – | – | – | 7094 | 6.02e5 | inactive
CG34125 | 1 | – | – | – | 5295 | 4.50e5 | inactive
Mst27D (Male specific transcript 27D) | 1 | – | – | – | 5651 | 5.09e5 | inactive
CG13192 | 1 | – | – | – | 5142 | 2.46e5 | inactive
CG6665 | 1 | – | – | – | 10289 | 3.39e5 | inactive
SelG (Selenoprotein G) | 1 | – | – | – | 8561 | 5.72e5 | inactive
Octalpha2R (alpha2-adrenergic-like octopamine receptor) | 1 | – | – | – | 3496 | 3.86e5 | inactive
Octalpha2R (alpha2-adrenergic-like octopamine receptor) | 2 | – | – | – | 7650 | 5.49e5 | inactive
